Reference: the supplement of paper PMC6411743
± gives the standard deviation of the averaged measurements. This is a selection; strong and weak results do not stand in their true shares. Small differences around the control level are noise.

Protein sequences, listed by entry. Tags and fused reporters are not part of them. Lines headed by an entry give the natural chain unless they say otherwise; changes in a name come on top.
UniProt Q9H0X4: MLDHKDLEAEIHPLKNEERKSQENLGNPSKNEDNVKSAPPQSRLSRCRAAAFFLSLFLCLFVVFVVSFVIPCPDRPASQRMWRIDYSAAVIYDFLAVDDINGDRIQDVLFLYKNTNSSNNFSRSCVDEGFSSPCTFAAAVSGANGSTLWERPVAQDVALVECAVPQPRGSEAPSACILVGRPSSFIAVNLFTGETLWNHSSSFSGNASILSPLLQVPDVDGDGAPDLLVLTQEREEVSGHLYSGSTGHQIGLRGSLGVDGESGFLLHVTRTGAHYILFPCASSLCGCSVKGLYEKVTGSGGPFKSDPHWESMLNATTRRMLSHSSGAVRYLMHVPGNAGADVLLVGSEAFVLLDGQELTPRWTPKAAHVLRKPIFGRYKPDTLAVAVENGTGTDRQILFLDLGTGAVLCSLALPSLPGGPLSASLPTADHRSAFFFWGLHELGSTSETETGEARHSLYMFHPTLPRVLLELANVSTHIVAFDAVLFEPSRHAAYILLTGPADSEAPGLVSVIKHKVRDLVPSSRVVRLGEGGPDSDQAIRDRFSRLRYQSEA
UniProt Q9H0J9: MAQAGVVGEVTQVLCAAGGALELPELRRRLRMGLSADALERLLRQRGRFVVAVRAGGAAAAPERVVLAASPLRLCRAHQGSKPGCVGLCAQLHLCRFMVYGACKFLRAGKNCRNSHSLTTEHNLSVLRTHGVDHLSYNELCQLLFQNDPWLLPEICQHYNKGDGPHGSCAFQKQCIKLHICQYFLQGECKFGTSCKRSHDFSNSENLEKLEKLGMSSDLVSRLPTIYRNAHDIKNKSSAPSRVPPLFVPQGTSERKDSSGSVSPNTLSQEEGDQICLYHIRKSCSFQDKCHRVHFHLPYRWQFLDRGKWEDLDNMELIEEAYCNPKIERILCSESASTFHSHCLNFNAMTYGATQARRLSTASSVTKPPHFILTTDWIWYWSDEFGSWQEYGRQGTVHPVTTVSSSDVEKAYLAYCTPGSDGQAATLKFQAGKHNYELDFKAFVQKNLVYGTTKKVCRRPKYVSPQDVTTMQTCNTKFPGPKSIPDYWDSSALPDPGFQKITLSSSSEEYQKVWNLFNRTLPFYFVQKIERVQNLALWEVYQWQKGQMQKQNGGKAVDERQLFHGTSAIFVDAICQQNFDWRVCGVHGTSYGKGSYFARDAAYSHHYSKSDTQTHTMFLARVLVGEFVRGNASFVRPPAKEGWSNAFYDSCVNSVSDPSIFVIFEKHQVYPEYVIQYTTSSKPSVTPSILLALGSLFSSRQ
UniProt Q9H425: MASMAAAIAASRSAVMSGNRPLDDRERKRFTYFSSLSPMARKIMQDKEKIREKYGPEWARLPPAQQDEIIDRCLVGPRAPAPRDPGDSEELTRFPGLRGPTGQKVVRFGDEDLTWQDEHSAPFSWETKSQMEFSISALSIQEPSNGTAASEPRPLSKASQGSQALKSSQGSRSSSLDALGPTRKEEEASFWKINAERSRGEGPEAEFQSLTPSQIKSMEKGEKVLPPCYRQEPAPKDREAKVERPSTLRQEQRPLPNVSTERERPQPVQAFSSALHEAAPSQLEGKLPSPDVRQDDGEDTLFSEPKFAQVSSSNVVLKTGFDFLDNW
UniProt Q9H501: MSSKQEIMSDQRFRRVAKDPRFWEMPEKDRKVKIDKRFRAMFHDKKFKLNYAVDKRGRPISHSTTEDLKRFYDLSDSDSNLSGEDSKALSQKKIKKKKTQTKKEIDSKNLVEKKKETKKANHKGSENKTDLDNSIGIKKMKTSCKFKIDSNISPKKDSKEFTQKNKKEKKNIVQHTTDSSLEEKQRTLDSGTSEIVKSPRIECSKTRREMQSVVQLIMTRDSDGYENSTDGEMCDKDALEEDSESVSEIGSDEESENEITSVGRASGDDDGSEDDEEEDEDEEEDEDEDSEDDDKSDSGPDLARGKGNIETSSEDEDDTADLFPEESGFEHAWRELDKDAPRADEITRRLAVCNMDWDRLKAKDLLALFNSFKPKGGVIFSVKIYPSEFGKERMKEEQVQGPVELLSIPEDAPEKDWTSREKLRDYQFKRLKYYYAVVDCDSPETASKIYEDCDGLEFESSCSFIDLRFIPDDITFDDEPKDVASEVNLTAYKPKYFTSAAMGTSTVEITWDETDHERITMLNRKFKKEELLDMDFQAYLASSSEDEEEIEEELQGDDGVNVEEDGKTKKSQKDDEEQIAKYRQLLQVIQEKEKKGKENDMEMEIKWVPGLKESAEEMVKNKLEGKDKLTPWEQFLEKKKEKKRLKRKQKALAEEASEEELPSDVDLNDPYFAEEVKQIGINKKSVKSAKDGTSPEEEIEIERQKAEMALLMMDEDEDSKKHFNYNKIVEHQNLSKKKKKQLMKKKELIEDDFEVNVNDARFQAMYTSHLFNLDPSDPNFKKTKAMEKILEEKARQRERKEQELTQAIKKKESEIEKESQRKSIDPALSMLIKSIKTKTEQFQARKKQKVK
UniProt Q9H2J4: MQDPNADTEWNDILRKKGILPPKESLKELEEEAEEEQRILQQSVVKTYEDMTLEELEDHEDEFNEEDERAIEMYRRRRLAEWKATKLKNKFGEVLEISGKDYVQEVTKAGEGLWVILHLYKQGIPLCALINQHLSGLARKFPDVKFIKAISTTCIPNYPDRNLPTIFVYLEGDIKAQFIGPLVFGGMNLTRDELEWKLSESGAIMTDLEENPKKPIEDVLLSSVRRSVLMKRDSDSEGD
UniProt Q9H4A6: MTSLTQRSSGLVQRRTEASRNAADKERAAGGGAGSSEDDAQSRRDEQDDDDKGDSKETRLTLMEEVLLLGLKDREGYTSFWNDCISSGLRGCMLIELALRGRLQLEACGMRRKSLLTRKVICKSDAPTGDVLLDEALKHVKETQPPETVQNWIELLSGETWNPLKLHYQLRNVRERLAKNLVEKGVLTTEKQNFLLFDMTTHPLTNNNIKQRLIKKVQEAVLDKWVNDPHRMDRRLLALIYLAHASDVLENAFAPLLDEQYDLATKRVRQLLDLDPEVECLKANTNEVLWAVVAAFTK
UniProt Q9NPF5, whole entry: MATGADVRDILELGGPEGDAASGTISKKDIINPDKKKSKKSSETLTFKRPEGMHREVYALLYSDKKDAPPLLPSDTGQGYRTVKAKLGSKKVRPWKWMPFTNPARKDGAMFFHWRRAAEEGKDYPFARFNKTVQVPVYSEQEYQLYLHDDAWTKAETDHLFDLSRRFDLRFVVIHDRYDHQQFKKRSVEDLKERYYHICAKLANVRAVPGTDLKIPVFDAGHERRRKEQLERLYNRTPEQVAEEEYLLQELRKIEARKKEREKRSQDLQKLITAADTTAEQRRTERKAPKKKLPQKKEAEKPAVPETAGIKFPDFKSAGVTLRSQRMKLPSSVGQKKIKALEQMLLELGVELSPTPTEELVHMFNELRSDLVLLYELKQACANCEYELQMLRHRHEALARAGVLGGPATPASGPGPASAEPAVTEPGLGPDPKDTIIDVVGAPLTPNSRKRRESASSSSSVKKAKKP
UniProt Q9H0G5: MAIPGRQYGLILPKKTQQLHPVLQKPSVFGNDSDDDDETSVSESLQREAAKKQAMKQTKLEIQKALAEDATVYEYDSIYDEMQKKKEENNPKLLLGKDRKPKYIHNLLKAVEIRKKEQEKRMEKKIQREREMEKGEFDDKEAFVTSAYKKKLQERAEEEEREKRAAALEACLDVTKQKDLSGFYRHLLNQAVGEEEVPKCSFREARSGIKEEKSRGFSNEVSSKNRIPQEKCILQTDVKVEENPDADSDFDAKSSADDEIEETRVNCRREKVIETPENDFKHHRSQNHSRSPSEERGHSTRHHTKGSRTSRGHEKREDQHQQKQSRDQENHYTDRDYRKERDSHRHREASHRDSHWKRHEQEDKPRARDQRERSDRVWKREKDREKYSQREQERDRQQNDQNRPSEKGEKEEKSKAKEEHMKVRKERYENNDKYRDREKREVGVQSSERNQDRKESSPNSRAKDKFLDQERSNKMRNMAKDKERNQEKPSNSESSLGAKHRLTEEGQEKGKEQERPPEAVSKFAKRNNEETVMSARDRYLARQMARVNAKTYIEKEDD
UniProt Q9C0D5: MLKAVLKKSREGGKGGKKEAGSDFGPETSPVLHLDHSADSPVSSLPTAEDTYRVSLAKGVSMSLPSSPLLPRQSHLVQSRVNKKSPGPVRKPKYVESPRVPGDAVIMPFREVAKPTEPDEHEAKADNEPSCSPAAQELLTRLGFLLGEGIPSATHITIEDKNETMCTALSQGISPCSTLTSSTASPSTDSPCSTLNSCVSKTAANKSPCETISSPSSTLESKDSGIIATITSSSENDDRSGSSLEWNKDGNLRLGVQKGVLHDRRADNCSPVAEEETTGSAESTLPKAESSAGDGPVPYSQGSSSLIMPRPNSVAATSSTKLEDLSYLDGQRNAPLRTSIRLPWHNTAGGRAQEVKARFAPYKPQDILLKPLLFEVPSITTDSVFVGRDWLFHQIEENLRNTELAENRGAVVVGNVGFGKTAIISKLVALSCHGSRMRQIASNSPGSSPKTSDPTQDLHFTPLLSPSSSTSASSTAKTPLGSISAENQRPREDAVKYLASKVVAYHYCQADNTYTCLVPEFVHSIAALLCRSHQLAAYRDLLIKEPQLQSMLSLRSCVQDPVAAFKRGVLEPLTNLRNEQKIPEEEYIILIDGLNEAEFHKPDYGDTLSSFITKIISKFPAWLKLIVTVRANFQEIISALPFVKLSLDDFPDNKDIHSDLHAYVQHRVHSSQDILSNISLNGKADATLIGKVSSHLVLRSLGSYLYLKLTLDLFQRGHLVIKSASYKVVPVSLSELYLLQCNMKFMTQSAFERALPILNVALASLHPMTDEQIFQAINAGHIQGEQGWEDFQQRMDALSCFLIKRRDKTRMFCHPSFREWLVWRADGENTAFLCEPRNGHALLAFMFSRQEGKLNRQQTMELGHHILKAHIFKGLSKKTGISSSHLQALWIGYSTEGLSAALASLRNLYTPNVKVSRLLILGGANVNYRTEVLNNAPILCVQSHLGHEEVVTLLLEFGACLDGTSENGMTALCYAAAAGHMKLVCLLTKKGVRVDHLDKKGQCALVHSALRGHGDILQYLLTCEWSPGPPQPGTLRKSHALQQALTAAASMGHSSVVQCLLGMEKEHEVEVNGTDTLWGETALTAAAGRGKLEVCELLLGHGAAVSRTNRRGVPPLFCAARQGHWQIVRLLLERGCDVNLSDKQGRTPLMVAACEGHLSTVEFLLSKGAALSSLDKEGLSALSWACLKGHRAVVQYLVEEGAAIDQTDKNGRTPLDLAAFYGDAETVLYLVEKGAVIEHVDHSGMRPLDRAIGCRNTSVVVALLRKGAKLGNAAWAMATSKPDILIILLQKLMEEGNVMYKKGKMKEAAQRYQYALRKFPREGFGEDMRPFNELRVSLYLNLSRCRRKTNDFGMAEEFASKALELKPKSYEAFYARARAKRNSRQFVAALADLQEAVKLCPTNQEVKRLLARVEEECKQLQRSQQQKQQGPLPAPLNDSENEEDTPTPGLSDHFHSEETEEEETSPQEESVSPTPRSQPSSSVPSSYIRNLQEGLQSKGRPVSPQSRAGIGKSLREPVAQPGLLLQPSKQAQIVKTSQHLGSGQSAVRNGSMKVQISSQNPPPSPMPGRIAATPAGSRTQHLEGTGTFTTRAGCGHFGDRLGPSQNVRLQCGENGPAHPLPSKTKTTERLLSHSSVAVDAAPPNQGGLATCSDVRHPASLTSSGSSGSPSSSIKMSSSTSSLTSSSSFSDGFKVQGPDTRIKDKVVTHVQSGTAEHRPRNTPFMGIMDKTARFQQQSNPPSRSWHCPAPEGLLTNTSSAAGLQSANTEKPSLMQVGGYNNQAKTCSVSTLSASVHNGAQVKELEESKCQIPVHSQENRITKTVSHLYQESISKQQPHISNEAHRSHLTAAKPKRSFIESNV
UniProt Q9H875: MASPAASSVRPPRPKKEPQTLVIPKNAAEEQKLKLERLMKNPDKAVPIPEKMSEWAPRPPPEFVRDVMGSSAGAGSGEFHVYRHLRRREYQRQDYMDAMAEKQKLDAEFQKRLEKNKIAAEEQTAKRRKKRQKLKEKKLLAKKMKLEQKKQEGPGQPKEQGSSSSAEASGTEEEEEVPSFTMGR
UniProt Q9H098: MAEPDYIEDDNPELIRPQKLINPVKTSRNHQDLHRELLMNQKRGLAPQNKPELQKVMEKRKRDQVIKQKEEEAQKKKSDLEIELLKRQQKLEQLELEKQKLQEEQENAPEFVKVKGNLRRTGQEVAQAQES
UniProt Q9H7E9: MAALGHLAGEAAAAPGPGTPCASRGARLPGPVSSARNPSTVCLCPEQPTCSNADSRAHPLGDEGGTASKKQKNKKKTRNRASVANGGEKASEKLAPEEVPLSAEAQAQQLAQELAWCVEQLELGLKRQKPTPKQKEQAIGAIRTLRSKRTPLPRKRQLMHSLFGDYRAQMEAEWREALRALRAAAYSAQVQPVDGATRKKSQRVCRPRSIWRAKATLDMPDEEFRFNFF

Compound: Nc1ncnc2c1ncn2[C@@H]1O[C@H](COP(=O)(O)OP(=O)(O)NP(=O)(O)O)[C@@H](O)[C@H]1O [adenylyl imidodiphosphate]
Assay: NP40-soluble protein abundance relative to vehicle (solubility fold change) (ratio); higher = more soluble protein in presence of AMP-PNP
In short: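 Crude Jurkat lysate, prepared by Dounce homogenisation, was exposed to eight concentrations from 0.1 to 10 mM for 10 min at room temperature and then 3 min at 37 °C. Solubilisation used 0.8% NP40 with benzonase for 60 min at 4 °C, followed by ultracentrifugation and TMT labelling of the supernatant for LC-MS/MS. After vsn normalisation of intensities, each value is the fold change against the detergent-processed vehicle within each replicate, across three independent experiments.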

Target	NP40-soluble protein abundance (concentration: 0.1mM)	NP40-soluble protein abundance (concentration: 0.5mM)
C17orf75 (UniProt Q9HAS0)	0.995 ± 0.019	1.01 ± 0.042
UniProt Q9H0X4	0.944 ± 0.022	0.9583 ± 0.0033
UniProt Q9HCJ0 and related entries	0.9914 ± 0.0092	1.018 ± 0.0076
UniProt Q9H0X9 and related entries	0.983 ± 0.015	0.945 ± 0.037
PARP12 (UniProt Q9H0J9)	0.999 ± 0.025	0.986 ± 0.022
UniProt Q9H425 and related entries	0.992 ± 0.024	1.03 ± 0.043
ESF1 (UniProt Q9H501)	1.015 ± 0.002	1.04 ± 0.052
PDCL3 (UniProt Q9H2J4)	0.988 ± 0.015	0.976 ± 0.012
GOLPH3 (UniProt Q9H4A6)	1.03 ± 0.038	1.03 ± 0.042
ANKZF1 (UniProt Q9H8Y5)	0.999 ± 0.041	0.998 ± 0.042
DCP1A (UniProt Q9NPI6)	0.997 ± 0.044	0.993 ± 0.034
UniProt Q9HBE1 and related entries	1.03 ± 0.044	1.004 ± 0.0033
LSG1 (UniProt Q9H089)	0.983 ± 0.021	0.945 ± 0.043
DMAP1 (UniProt Q9NPF5)	0.979 ± 0.042	1.02 ± 0.012
UniProt Q9H0G5	1.036 ± 0.0043	1 ± 0.027
UniProt Q9C0D5 and related entries	0.934 ± 0.014	0.9621 ± 0.0076
RAB18 (UniProt Q9NP72)	0.989 ± 0.019	0.9958 ± 0.0061
PRKRIP1 (UniProt Q9H875)	0.995 ± 0.021	1.04 ± 0.073
CHMP4B (UniProt Q9H444)	0.974 ± 0.077	1.05 ± 0.093
UniProt Q9H098 and related entries	0.979 ± 0.07	0.954 ± 0.087
UniProt Q9H7E9 and related entries	1.04 ± 0.078	1.09 ± 0.12
UniProt Q9HAT2 and related entries	0.985 ± 0.042	1.035 ± 0.0034

Laid out differently: entries from further up
Target,NP40-soluble protein abundance (concentration: 0.1mM),NP40-soluble protein abundance (concentration: 0.5mM)
UniProt Q9H0X4,0.944 ± 0.022,0.9583 ± 0.0033
UniProt Q9HCJ0 and related entries,0.9914 ± 0.0092,1.018 ± 0.0076
